Record: PubChem BioAssay AID652243 (Drosophila RNAi Screening Center, 2013)
The deposit covers about 24,000 reagents; shown is a random part of those with a known target gene and a result. Over the whole deposit, 246 (1%) were called active. 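Plates not normalised; calls are printed but the firefly/Renilla ratio behind them is not deposited; fold cut for lowering reported inconsistently.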 The raw values are shown without normalisation. Reagents against one gene are numbered here. The record does not give: the amount of reagent.

- Screen: 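Fly regulators of androgen-dependent reporter output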 (primary screen)
- System: Drosophila S2R+ cells
- Reagents: long dsRNA against Drosophila genes
- Time to read-out: 72 h (48 h, then 24 h hormone)
- Challenge: synthetic androgen R1881 at 10 nM for 24 h
- Detection: 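Per-well raw luminescence of the androgen-driven firefly reporter and of the Renilla control, two replicates each, without normalisation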
- Reading the numbers: firefly reporter light: higher = more light from androgen-responsive reporter; Renilla control light: higher = more constitutive control signal (cell number, transfection)
- Active means: 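Across duplicate plates, a knock-down whose log firefly/Renilla ratio shifted a set fold down or up from the GFP/LacZ control mean was a hit; the downward cut appears as both 1.5 and 3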
- Meaning of the calls: active = hit: reporter lowered or raised; inactive = no hit

The first 2 records, to show the layout:
Bdp1 (B double prime 1) #1 | firefly reporter light, replicate 1 = 8.10e5; firefly reporter light, replicate 2 = 1.30e6; Renilla control light, replicate 1 = 1.79e6; Renilla control light, replicate 2 = 1.79e6; outcome = inactive
Bdp1 (B double prime 1) #2 | firefly reporter light, replicate 1 = 3.79e5; firefly reporter light, replicate 2 = 3.82e5; Renilla control light, replicate 1 = 8.32e5; Renilla control light, replicate 2 = 9.44e5; outcome = inactive

Results, from the first entry:
Bdp1 (B double prime 1) #1 | firefly reporter light, replicate 1 = 8.10e5; firefly reporter light, replicate 2 = 1.30e6; Renilla control light, replicate 1 = 1.79e6; Renilla control light, replicate 2 = 1.79e6; outcome = inactive
Bdp1 (B double prime 1) #2 | firefly reporter light, replicate 1 = 3.79e5; firefly reporter light, replicate 2 = 3.82e5; Renilla control light, replicate 1 = 8.32e5; Renilla control light, replicate 2 = 9.44e5; outcome = inactive
Spps (Sp1-like factor for pairing sensitive-silencing) | firefly reporter light, replicate 1 = 5.67e5; firefly reporter light, replicate 2 = 7.18e5; Renilla control light, replicate 1 = 1.12e6; Renilla control light, replicate 2 = 1.11e6; outcome = inactive
mbl (muscleblind) #1 | firefly reporter light, replicate 1 = 9.13e5; firefly reporter light, replicate 2 = 6.60e5; Renilla control light, replicate 1 = 1.63e6; Renilla control light, replicate 2 = 1.16e6; outcome = inactive
mbl (muscleblind) #2 | firefly reporter light, replicate 1 = 5.89e5; firefly reporter light, replicate 2 = 7.32e5; Renilla control light, replicate 1 = 1.17e6; Renilla control light, replicate 2 = 1.36e6; outcome = inactive
cos (costa) #1 | firefly reporter light, replicate 1 = 8.66e5; firefly reporter light, replicate 2 = 8.46e5; Renilla control light, replicate 1 = 2.26e6; Renilla control light, replicate 2 = 1.92e6; outcome = inactive
cos (costa) #2 | firefly reporter light, replicate 1 = 3.01e5; firefly reporter light, replicate 2 = 5.51e5; Renilla control light, replicate 1 = 9.06e5; Renilla control light, replicate 2 = 1.44e6; outcome = inactive
Tango4 (Transport and Golgi organization 4) #1 | firefly reporter light, replicate 1 = 56018; firefly reporter light, replicate 2 = 62948; Renilla control light, replicate 1 = 7.11e5; Renilla control light, replicate 2 = 7.10e5; outcome = inactive
Tango4 (Transport and Golgi organization 4) #2 | firefly reporter light, replicate 1 = 5.59e5; firefly reporter light, replicate 2 = 6.22e5; Renilla control light, replicate 1 = 9.93e5; Renilla control light, replicate 2 = 9.94e5; outcome = inactive
CG33144 #1 | firefly reporter light, replicate 1 = 4.41e5; firefly reporter light, replicate 2 = 3.22e5; Renilla control light, replicate 1 = 2.51e6; Renilla control light, replicate 2 = 2.17e6; outcome = inactive
CG33144 #2 | firefly reporter light, replicate 1 = 8.46e5; firefly reporter light, replicate 2 = 9.46e5; Renilla control light, replicate 1 = 1.18e6; Renilla control light, replicate 2 = 1.18e6; outcome = inactive
CG32302 | firefly reporter light, replicate 1 = 57070; firefly reporter light, replicate 2 = 66647; Renilla control light, replicate 1 = 1.12e6; Renilla control light, replicate 2 = 1.02e6; outcome = inactive
Clc (Clathrin light chain) #1 | firefly reporter light, replicate 1 = 23931; firefly reporter light, replicate 2 = 57618; Renilla control light, replicate 1 = 3.07e5; Renilla control light, replicate 2 = 5.00e5; outcome = inactive
Clc (Clathrin light chain) #2 | firefly reporter light, replicate 1 = 8.58e5; firefly reporter light, replicate 2 = 5.56e5; Renilla control light, replicate 1 = 7.57e5; Renilla control light, replicate 2 = 5.70e5; outcome = inactive
Pez #1 | firefly reporter light, replicate 1 = 2.33e5; firefly reporter light, replicate 2 = 2.26e5; Renilla control light, replicate 1 = 1.96e6; Renilla control light, replicate 2 = 1.75e6; outcome = inactive
Pez #2 | firefly reporter light, replicate 1 = 6.03e5; firefly reporter light, replicate 2 = 4.57e5; Renilla control light, replicate 1 = 1.31e6; Renilla control light, replicate 2 = 1.34e6; outcome = inactive
Pez #3 | outcome = inactive
CG9876 | firefly reporter light, replicate 1 = 3.53e5; firefly reporter light, replicate 2 = 2.45e5; Renilla control light, replicate 1 = 3.03e6; Renilla control light, replicate 2 = 2.42e6; outcome = inactive
CG13284 | firefly reporter light, replicate 1 = 2.02e5; firefly reporter light, replicate 2 = 1.57e5; Renilla control light, replicate 1 = 1.96e6; Renilla control light, replicate 2 = 1.70e6; outcome = inactive
Hat1 (Histone acetyltransferase 1) #1 | firefly reporter light, replicate 1 = 33128; firefly reporter light, replicate 2 = 30177; Renilla control light, replicate 1 = 1.17e6; Renilla control light, replicate 2 = 7.66e5; outcome = inactive
Hat1 (Histone acetyltransferase 1) #2 | firefly reporter light, replicate 1 = 8.41e5; firefly reporter light, replicate 2 = 8.69e5; Renilla control light, replicate 1 = 1.33e6; Renilla control light, replicate 2 = 1.36e6; outcome = inactive
CheA56a (Chemosensory protein A 56a) | firefly reporter light, replicate 1 = 4.52e5; firefly reporter light, replicate 2 = 5.78e5; Renilla control light, replicate 1 = 9.90e5; Renilla control light, replicate 2 = 1.50e6; outcome = inactive
CG31360 | firefly reporter light, replicate 1 = 2.73e5; firefly reporter light, replicate 2 = 2.33e5; Renilla control light, replicate 1 = 5.41e5; Renilla control light, replicate 2 = 4.61e5; outcome = inactive
CG9294 | firefly reporter light, replicate 1 = 2.10e5; firefly reporter light, replicate 2 = 2.11e5; Renilla control light, replicate 1 = 1.63e6; Renilla control light, replicate 2 = 1.23e6; outcome = inactive
Gr93b (Gustatory receptor 93b) | firefly reporter light, replicate 1 = 7.18e5; firefly reporter light, replicate 2 = 5.80e5; Renilla control light, replicate 1 = 1.04e6; Renilla control light, replicate 2 = 9.80e5; outcome = inactive
CG15446 | firefly reporter light, replicate 1 = 1.18e5; firefly reporter light, replicate 2 = 1.05e5; Renilla control light, replicate 1 = 3.57e5; Renilla control light, replicate 2 = 2.98e5; outcome = inactive
CG13994 | firefly reporter light, replicate 1 = 2.44e5; firefly reporter light, replicate 2 = 1.82e5; Renilla control light, replicate 1 = 3.04e6; Renilla control light, replicate 2 = 1.56e6; outcome = inactive
